In all, about 400,000 compounds went through this assay and about 13,000 (3.2%) were called active. Inconclusive means that the source gave no clear call. Such entries were picked first, then a sample of the others. Calls follow the shape of the dose curve; as a rule, active = well fitted cell-killing curve with a large enough effect; inconclusive = small, poorly fitted or top-dose-only effect, or effect the other way; inactive = flat fitted curve, though single readings scatter. A potency beside an inconclusive call is a rough fit, not a confirmed value.
assay: qHTS assay for MDR1-selective chemotherapeutics: Primary screen using the drug-selected MDR subline cells KB-V1; details: KB-V1 MDR cells viability, CellTiter-Glo, 72 h; activity change, negative = cytotoxicity: at 46.1 µM (top of the series); also: nearly all actives have a fitted effect of over 60% in size
In short: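 Cytotoxicity via CellTiter-Glo luminescence after 72 h compound exposure at 37 degrees C. Cells: drug-selected KB-V1 line, DMEM phenol-red free plus 10% FBS. Compounds tested at multiple concentrations; normalized data fitted to concentration-effect curves.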
% is scaled to controls: 0 for no effect and ±100 for the full control effect; potency is read from the fitted curve at half-maximal effect.

SMILES	activity change, negative = cytotoxicity	Potency
CC12CC3CC(C)(C1)CC(C(O)CN1CCOCC1)(C3)C2 (stereo unspecified)	inconclusive: -9.52%	
O=C(Nc1cc(S(=O)(=O)N2CCOCC2)ccc1N1CCCC1)c1cc(F)c(F)cc1Cl		active: 16.4 µM
CN(C)S(=O)(=O)c1cccc(C(=O)OCC(=O)NCc2ccc3c(c2)OCO3)c1		inconclusive: 32.6 µM [rising, partial curve, poor fit]
Cn1nnnc1SCC(=O)Nc1ccccn1		inactive
CCN(CC(=O)Nc1ccccc1OC)C(=O)COc1ccc2ccccc2c1		active: 14.6 µM
Cc1cccc2cc(C#N)c(SCCN3CCCCC3)nc12		inconclusive: 23.1 µM [cytotoxic, partial curve]
OCC[C@H]1C[C@H](O)[C@@H](O)[C@@]2(CCc3ccccc3O2)O1		inconclusive: 29.1 µM [rising, single point]
CCOc1ccc(N=C/C=C/c2ccccc2)c(O)c1		inconclusive: 20.6 µM [rising, single point]
Cc1cc(C)c2c(=O)n3c(nc2c1)C(Cc1ccccc1)NC(=O)c1cccnc1-3 (stereo unspecified)		inactive
CCOC(=O)C1CCN(C(=O)c2ccc3c(SCC(=O)O)c4c(nc3c2)CCCC4)CC1		inactive
Oc1c(Cl)cc(Cl)cc1/C=N/Nc1ncc(Br)cn1		inactive
O=C(Nc1ccccc1)c1ccccc1NS(=O)(=O)c1ccc(Cl)s1		active: 4.11 µM
COc1ccc(C(=O)CCc2ccccc2)c(O)c1		inconclusive: 0.164 µM [cytotoxic, full curve]
COc1ccccc1Nc1nc(NCC(C)C)nc(N)c1[N+](=O)[O-]		inactive
O=C1CCCc2ccccc2N1Cc1ccc(Cl)cc1		inconclusive: 16.4 µM [cytotoxic, single point]
CC(=O)N1CCc2cc(S(=O)(=O)N3c4ccccc4CC3C)ccc21 (stereo unspecified)		inconclusive: 20.6 µM [cytotoxic, single point]
CC(C)C(=O)NC(c1cccs1)c1cc([N+](=O)[O-])c2cccnc2c1O (stereo unspecified)		inconclusive: 7.31 µM [cytotoxic, partial curve, poor fit]
COc1ccc(Cl)cc1NC(=O)Cn1nnc(C(=O)NCc2cccs2)c1N		inconclusive: 13 µM [cytotoxic, partial curve, poor fit]
C/C(=N\Nc1ccccc1[N+](=O)[O-])c1ccccc1O		inconclusive: 18.4 µM [rising, partial curve, poor fit]
COc1cccc(C(C)(O)c2nc(-c3ccc(Cl)cc3)cs2)c1 (stereo unspecified)		inconclusive: 18.4 µM [cytotoxic, single point]
Cc1c([N+](=O)[O-])cc(N2C(=O)C=CC2=O)cc1[N+](=O)[O-]		inactive
COc1ccc(C2C(C(C)=O)=C(C)Nc3ncnn32)c(OC)c1OC (stereo unspecified)		inconclusive: 20.6 µM [rising, single point]
CC(C)(CCC(=S)N1CCOCC1)c1ccccc1		inactive
CCOC(=O)C1=CCN(S(=O)(=O)c2ccccc2C)C1c1ccc(C)cc1 (stereo unspecified)		inactive

Individual results from the entries so far.
Potency, Cc1cc(C)c2c(=O)n3c(nc2c1)C(Cc1ccccc1)NC(=O)c1cccnc1-3 (stereo unspecified) is entered as inactive
Potency, O=C(Nc1ccccc1)c1ccccc1NS(=O)(=O)c1ccc(Cl)s1 is entered as active: 4.11 µM

Quoted from the results shown for reference:
SMILES	activity change, negative = cytotoxicity	Potency
CC(C)C(=O)NC(c1cccs1)c1cc([N+](=O)[O-])c2cccnc2c1O (stereo unspecified)		inconclusive: 7.31 µM [cytotoxic, partial curve, poor fit]
COc1ccc(Cl)cc1NC(=O)Cn1nnc(C(=O)NCc2cccs2)c1N		inconclusive: 13 µM [cytotoxic, partial curve, poor fit]
C/C(=N\Nc1ccccc1[N+](=O)[O-])c1ccccc1O		inconclusive: 18.4 µM [rising, partial curve, poor fit]

Remaining list, next part:

SMILES	activity change, negative = cytotoxicity	Potency
C[C@@H]1CN([C@@H](C)CO)C(=O)CCCn2nncc2CO[C@H]1CN(C)S(=O)(=O)c1cn(C)cn1		inactive
O=C(O)c1cccnc1Sc1ncnc2sc3c(c12)CCC3		inconclusive: 16.4 µM [rising, single point]
COc1cccc(-c2cc(C(=O)N3CCN(c4ncccn4)CC3)c3ccccc3n2)c1		inconclusive: 9.2 µM [cytotoxic, partial curve, poor fit]
O=C(NCC1CCCO1)c1ccc2c(c1)N(Cc1ccccc1)C(=O)CS2 (stereo unspecified)		inconclusive: 18.4 µM [cytotoxic, single point]
CCOc1[nH]n(-c2ccc(Cl)cc2)c(=O)c1C=Nc1ccc(O)cc1		inconclusive: 16.4 µM [cytotoxic, partial curve, poor fit]
Cc1cccc2cc(C3CC(c4cccs4)=NN3S(C)(=O)=O)c(Cl)nc12 (stereo unspecified)		inconclusive: 5.8 µM [cytotoxic, partial curve]
CC(C)(C)OC(=O)NCCc1nnc(SCc2ccccc2)o1		inconclusive: 20.6 µM [cytotoxic, partial curve]
O=C(OCc1cc2ccccc2[nH]c1=O)c1ccc([N+](=O)[O-])cc1	inconclusive: 24.9%	
COc1ccc(NC(=O)CC2C(=O)N(C)C(=S)N2CCc2ccccc2F)cc1 (stereo unspecified)		inconclusive: 29.1 µM [cytotoxic, single point]
COc1cc(-c2cc(=O)c3ccccc3o2)ccc1O		inconclusive: 25.9 µM [cytotoxic, single point]
COc1ccc(-c2nc3ccccc3o2)cc1NC(=O)c1ccc(OCC(C)C)cc1		inactive
Cc1ccc(C2c3c(-c4ccccc4O)n[nH]c3C(=O)N2Cc2ccncc2)cc1 (stereo unspecified)		inconclusive: 29.1 µM [cytotoxic, single point]
COCCCNC(=S)N(Cc1ccccc1)Cc1ccccc1		active: 18.4 µM
CN(C)C(=S)Oc1ccccc1C1(C)OCCO1		inactive
CCN(CC)CCN1C(=O)C(O)=C(C(C)=O)C1c1ccccc1[N+](=O)[O-] (stereo unspecified)		inconclusive: 29.1 µM [rising, single point]
O=C(C1CC(=O)N(c2ccc(F)cc2)C1)N1CCN(c2ccc(F)cc2)CC1 (stereo unspecified)		inconclusive: 23.1 µM [cytotoxic, single point]
COc1ccc(-c2noc(COc3ccc(Cl)c(C)c3)n2)cc1		inconclusive: 18.4 µM [rising, partial curve, poor fit]
CC(C)N=c1scc(-c2ccco2)n1/N=C/c1ccc(O)c(O)c1		inconclusive: 29.1 µM [cytotoxic, single point]
Cn1c(-c2ccc(C#N)cc2)c(C#Cc2ccccc2)c2ccccc21		inactive
Cc1cccc(C)c1NC(=O)CNC(=O)c1ccc2c(c1)NC(=O)CS2	inconclusive: -65.2%	
CCNC(=O)c1ccc(NS(=O)(=O)c2ccc3[nH]c(=O)[nH]c3c2)cc1		inconclusive: 0.517 µM [rising, full curve, poor fit]
CCCC(=O)Nc1ccc(C2C(=O)c3ccccc3C2=O)cc1		inconclusive: 9.2 µM [cytotoxic, partial curve, poor fit]
COc1ccc(NC(=O)N2CCN(c3cccc(C(F)(F)F)c3)CC2)cc1OC		active: 13 µM
O=C(NNc1ccc(C2CCCCC2)cc1)C(O)(c1ccccc1)c1cccs1 (stereo unspecified)		inconclusive: 29.1 µM [cytotoxic, single point]

SMILES	activity change, negative = cytotoxicity	Potency
CCOc1cc(/C=C2\CCn3c2nc2cc(Cl)ccc2c3=O)ccc1O		inactive
COc1ccc(CCNC(=O)CCOc2ccc(C(C)(C)C)cc2)cc1OC		inconclusive: 7.31 µM [cytotoxic, partial curve]
O=S(=O)(c1ccc(SCc2ccc(Br)cc2)nc1)N1CCCCC1	inconclusive: 0.89%	
Cc1csc(=O)n1CC(=O)Nc1nc2ccccc2s1		inconclusive: 29.1 µM [cytotoxic, single point]
COc1ccc(/C=N/NC(=O)c2ccccc2)cc1OS(=O)(=O)c1ccccc1		inconclusive: 14.6 µM [cytotoxic, partial curve]
COC(=O)c1ccc(NC(=O)CN(C)S(=O)(=O)c2ccc(OC)c(C)c2)cc1		inconclusive: 29.1 µM [cytotoxic, single point]
O=C(c1cc(S(=O)(=O)N2CCOCC2)ccc1F)N1CCCc2ccccc21		inconclusive: 25.9 µM [cytotoxic, single point]
Cc1cc(NC(=O)CSc2ccnc(=O)[nH]2)no1		inconclusive: 29.1 µM [rising, single point]
COc1ccc(CC(=O)NNC2=Nc3cccc4cccc2c34)cc1OC		inactive
O=C(Nc1ccc(Cl)cn1)C1CCN(S(=O)(=O)c2cccs2)CC1		inconclusive: 7.31 µM [cytotoxic, full curve, poor fit]
COc1ccccc1CNC(=O)C(=O)NCC(c1cccnc1)N1CCN(c2ccc(F)cc2)CC1 (stereo unspecified)		inactive
Cc1ccc(Cn2ccnc2SCC(=O)NC2CCCC2)cc1		inconclusive: 25.9 µM [cytotoxic, single point]
COc1cc2c(cc1OC)CN(CC(=O)Nc1ccc(S(=O)(=O)N(C)C)cc1)CC2		inconclusive: 25.9 µM [cytotoxic, partial curve]
COc1ccc(CCN2CC(C(=O)N(C)CCc3cn[nH]c3)CCC2=O)cc1 (stereo unspecified)		inactive
C=CC[C@@H](CC(=O)N[C@@H](CO)Cc1ccccc1)C(=O)N[C@@H](COC(=O)[C@@H](CC=C)Cc1ccc(F)cc1)Cc1c[nH]c2ccccc12		inactive
O=C(O)c1ccc(N=Nc2c(O)[nH]c3ccccc23)cc1		inconclusive: 18.4 µM [cytotoxic, single point]
CCOC(=O)c1cc(-c2nnc(-c3ccc(Oc4ccccc4)cc3)o2)c(C)nc1C		inactive
CCCN1C(=O)/C(=C/c2c(N3CCNC(=O)C3CC(=O)OCC)nc3c(C)cccn3c2=O)SC1=S (stereo unspecified)		inconclusive: 29.1 µM [cytotoxic, single point]
Cc1c(C(=O)NCc2ccc(C#N)cc2)sc(=O)n1Cc1ccc(C(=O)N(C)C)cc1		inconclusive: 29.1 µM [cytotoxic, single point]
O=C(Nc1ccc(N2CCCC2)cc1)c1ccc(Cl)cc1Cl		inconclusive: 14.6 µM [rising, partial curve, poor fit]
COc1ccc(NC(=O)C2CC(c3ccccc3O)=NO2)cc1OC (stereo unspecified)		inactive
CCc1ccccc1NC(=O)CC(NCc1ccccc1)C(=O)O (stereo unspecified)		inactive
Cn1c(SCc2nnc(-c3ccccc3)o2)nc2ccccc21		inconclusive: 20.6 µM [cytotoxic, partial curve, poor fit]
